Record: PubChem BioAssay AID493246 (Drosophila RNAi Screening Center, 2011)
Assay: 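Identify essential fly genes by loss of cell viability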 (primary screen). Cells: Drosophila Kc and S2R+ cells. Reagents: long dsRNA against Drosophila genes. Measurement: 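Raw, unnormalised count of remaining cells in each well; per-plate z-scores of cell number underlie the calls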. Direction: Kc cell number and S2R+ cell number: higher = more cells remaining. Rule for the call: 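Counted as a hit if cell number falls by a z-score of at least 3 within its plate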.
The deposit covers about 21,000 reagents; shown is an unselected part of those with a known target gene and a result. Over the whole deposit, 429 (2%) are marked active. 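Values are raw and not normalised between plates; calls rest on per-plate z-scores that were not deposited.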 A plus sign joins genes that one reagent is predicted to hit. Reagent sequences are not shown. The record does not give: the amount of reagent, the time to read-out.

The first 5 records, to show the layout:
target gene,amplicon,"Kc cell number, rep 1","Kc cell number, rep 2","S2R+ cell number, rep 1","S2R+ cell number, rep 2",Call
CG11342 (GeneID 38538),DRSC08175,1.68e6,1.55e6,1.10e6,1.19e6,inactive
CG14515 (GeneID 43454),DRSC14867,1.44e6,1.47e6,1.01e6,1.16e6,inactive
CG13928 (GeneID 38195),DRSC08397,1.43e6,1.34e6,9.43e5,1.14e6,inactive
jp (GeneID 34274),DRSC02213,1.35e6,1.43e6,1.06e6,1.19e6,inactive
jp (GeneID 34274),DRSC02744,1.71e6,1.71e6,1.04e6,1.15e6,inactive

The list itself, from the start:
target gene,amplicon,"Kc cell number, rep 1","Kc cell number, rep 2","S2R+ cell number, rep 1","S2R+ cell number, rep 2",Call
CG11342 (GeneID 38538),DRSC08175,1.68e6,1.55e6,1.10e6,1.19e6,inactive
CG14515 (GeneID 43454),DRSC14867,1.44e6,1.47e6,1.01e6,1.16e6,inactive
CG13928 (GeneID 38195),DRSC08397,1.43e6,1.34e6,9.43e5,1.14e6,inactive
jp (GeneID 34274),DRSC02213,1.35e6,1.43e6,1.06e6,1.19e6,inactive
jp (GeneID 34274),DRSC02744,1.71e6,1.71e6,1.04e6,1.15e6,inactive
CR16735 (GeneID 10178810),DRSC15144,1.68e6,2.00e6,1.32e6,1.51e6,inactive
CG15515 (GeneID 43538),DRSC15054,1.49e6,1.55e6,1.03e6,1.15e6,inactive
Surf6 (GeneID 42370),DRSC15588,1.64e6,1.74e6,1.08e6,1.19e6,inactive
CG13053 (GeneID 50274),DRSC09934,1.33e6,1.46e6,1.30e6,1.40e6,inactive
CG15023 (GeneID 38550),DRSC08477,1.64e6,1.59e6,1.03e6,1.18e6,inactive
CG11317 (GeneID 43676),DRSC14299,5.63e5,,7.82e5,,inactive
Vinc (GeneID 31201),DRSC18728,5.09e5,,8.13e5,,inactive
Treh (GeneID 45368),DRSC04548,1.33e6,1.45e6,1.10e6,1.16e6,inactive
Su(H) (GeneID 34881),DRSC03445,1.59e6,1.63e6,1.33e6,1.42e6,inactive
Or94b (GeneID 42712),DRSC16773,1.44e6,1.39e6,9.56e5,1.08e6,inactive
Rab1 (GeneID 42524),DRSC16808,1.10e6,1.18e6,9.44e5,1.04e6,inactive
mon2 (GeneID 326157),DRSC03112,1.54e6,1.57e6,1.11e6,1.22e6,inactive
Pex5 (GeneID 31141),DRSC18552,1.64e6,1.74e6,1.02e6,1.18e6,inactive
CG14070 (GeneID 34508),DRSC02373,1.54e6,1.58e6,1.19e6,1.23e6,inactive
Gart (GeneID 33986),DRSC03481,1.47e6,1.33e6,1.16e6,1.28e6,inactive
CG9010 (GeneID 36904),DRSC07320,1.40e6,1.44e6,1.27e6,1.28e6,inactive
CG8388 (GeneID 36763),DRSC07157,1.54e6,1.60e6,1.20e6,1.21e6,inactive
Gem4b + Gem4c + Glos,DRSC18244,1.55e6,1.52e6,1.07e6,1.17e6,inactive
Membrin (GeneID 38614),DRSC10448,1.59e6,1.67e6,1.15e6,1.23e6,inactive
CG31206 (GeneID 318627),DRSC13388,1.49e6,1.51e6,1.05e6,1.16e6,inactive
CG3517 (GeneID 42324),DRSC15492,1.19e6,1.26e6,1.05e6,1.12e6,inactive
CG42747 (GeneID 38732),DRSC10209,1.73e6,1.64e6,1.36e6,1.29e6,inactive
CG42747 (GeneID 38732),DRSC10210,1.37e6,1.69e6,1.11e6,1.15e6,inactive
CG42457 (retired record) + cpo,DRSC13273,1.22e6,1.31e6,9.77e5,1.03e6,inactive
CG42457 (retired record) + cpo,DRSC14503,1.07e6,9.49e5,5.50e5,6.34e5,active
CG42457 (retired record) + cpo,DRSC15327,8.17e5,8.21e5,4.94e5,5.42e5,active
CG42457 (retired record) + cpo,DRSC16926,1.36e6,1.22e6,5.27e5,5.45e5,active
Epg5 (GeneID 42256),DRSC14778,1.21e6,1.21e6,1.12e6,1.22e6,inactive
Gbp1 (GeneID 36936),DRSC06592,1.57e6,1.63e6,1.25e6,1.31e6,inactive
EndoA (GeneID 42265),DRSC14775,1.59e6,1.61e6,1.25e6,1.31e6,inactive
GlcAT-I (GeneID 251900),DRSC17307,1.16e6,1.38e6,9.55e5,9.30e5,inactive
CG9356 (GeneID 41122),DRSC16476,1.46e6,1.48e6,1.18e6,1.25e6,inactive
Idh3a (GeneID 32940),DRSC19446,1.60e6,1.60e6,1.10e6,1.20e6,inactive
MagR (GeneID 32513),DRSC20092,1.51e6,1.54e6,7.06e5,8.04e5,active
Jon66Cii (GeneID 38953),DRSC10778,1.31e6,1.34e6,1.15e6,1.22e6,inactive
bgcn (GeneID 47873),DRSC04062,1.61e6,1.69e6,1.32e6,1.40e6,inactive
bgcn (GeneID 47873),DRSC04063,1.62e6,1.68e6,1.27e6,1.49e6,inactive
RNaseZ (GeneID 36086),DRSC06845,1.55e6,1.68e6,1.16e6,1.34e6,inactive
Mink (GeneID 42982),DRSC14291,1.54e6,1.62e6,1.20e6,1.30e6,inactive
CG16704 (GeneID 33589),DRSC00475,1.58e6,1.46e6,1.20e6,1.30e6,inactive
CG14442 (GeneID 31609),DRSC17935,5.13e5,,7.53e5,,inactive
CG13840 (GeneID 42705),DRSC14690,1.65e6,1.73e6,9.17e5,1.02e6,inactive
Cyp12c1 (GeneID 40037),DRSC11125,1.70e6,1.79e6,1.54e6,1.54e6,inactive
CG14834 (GeneID 38814),DRSC10204,1.58e6,1.46e6,1.17e6,1.25e6,inactive
CG13088 (GeneID 34180),DRSC02192,1.66e6,1.66e6,1.17e6,1.33e6,inactive
CG8281 (GeneID 38880),DRSC10976,1.44e6,1.57e6,1.25e6,1.30e6,inactive
rdgC (GeneID 40224),DRSC11387,1.78e6,1.94e6,1.42e6,1.62e6,inactive
osy (GeneID 43186),DRSC14903,1.88e6,1.88e6,1.06e6,1.19e6,inactive
osy (GeneID 43186),DRSC15979,1.71e6,1.74e6,1.08e6,1.23e6,inactive
osy (GeneID 43186),DRSC15981,4.85e5,,7.47e5,,inactive
RpS28b (GeneID 31897),DRSC18258,3.59e5,,7.22e5,,inactive
CG3270 (GeneID 35575),DRSC04988,1.34e6,1.38e6,1.19e6,1.25e6,inactive
CG7741 (GeneID 36208),DRSC07035,1.72e6,1.75e6,1.20e6,1.36e6,inactive
Aldh7A1 (GeneID 40097),DRSC11083,1.55e6,1.56e6,1.39e6,1.46e6,inactive
